Laboratory results taken from the supplement of paper PMC10849652.
The other results are listed elsewhere or left out.

Protein sequences, listed by entry. Tags and fused reporters are not part of them. Lines headed by an entry give the natural chain unless they say otherwise; changes in a name come on top.
UniProt Q6ULP2: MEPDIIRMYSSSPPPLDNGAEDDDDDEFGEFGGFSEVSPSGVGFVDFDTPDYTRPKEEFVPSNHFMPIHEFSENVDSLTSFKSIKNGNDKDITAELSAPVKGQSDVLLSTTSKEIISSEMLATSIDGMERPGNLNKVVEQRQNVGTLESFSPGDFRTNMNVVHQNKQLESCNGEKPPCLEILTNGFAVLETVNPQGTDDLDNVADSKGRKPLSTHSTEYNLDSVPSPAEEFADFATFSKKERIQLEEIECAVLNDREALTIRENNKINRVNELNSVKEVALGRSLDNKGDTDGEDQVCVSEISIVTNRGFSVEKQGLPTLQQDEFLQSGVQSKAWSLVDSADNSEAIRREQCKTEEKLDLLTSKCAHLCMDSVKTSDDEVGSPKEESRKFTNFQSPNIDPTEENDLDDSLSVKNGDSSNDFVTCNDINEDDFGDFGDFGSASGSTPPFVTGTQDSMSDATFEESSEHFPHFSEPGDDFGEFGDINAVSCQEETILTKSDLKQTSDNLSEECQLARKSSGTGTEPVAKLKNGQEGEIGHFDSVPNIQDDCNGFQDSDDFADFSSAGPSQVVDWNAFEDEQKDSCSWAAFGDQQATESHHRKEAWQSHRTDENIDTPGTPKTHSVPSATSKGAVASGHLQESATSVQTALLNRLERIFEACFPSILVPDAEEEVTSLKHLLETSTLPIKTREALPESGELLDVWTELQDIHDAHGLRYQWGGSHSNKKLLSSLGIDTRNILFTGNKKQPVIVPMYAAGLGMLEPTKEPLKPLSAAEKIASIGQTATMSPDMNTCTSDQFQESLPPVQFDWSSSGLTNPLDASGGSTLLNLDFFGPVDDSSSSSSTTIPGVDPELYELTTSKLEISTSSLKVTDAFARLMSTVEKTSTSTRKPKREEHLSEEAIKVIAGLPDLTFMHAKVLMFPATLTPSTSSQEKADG
UniProt P51649: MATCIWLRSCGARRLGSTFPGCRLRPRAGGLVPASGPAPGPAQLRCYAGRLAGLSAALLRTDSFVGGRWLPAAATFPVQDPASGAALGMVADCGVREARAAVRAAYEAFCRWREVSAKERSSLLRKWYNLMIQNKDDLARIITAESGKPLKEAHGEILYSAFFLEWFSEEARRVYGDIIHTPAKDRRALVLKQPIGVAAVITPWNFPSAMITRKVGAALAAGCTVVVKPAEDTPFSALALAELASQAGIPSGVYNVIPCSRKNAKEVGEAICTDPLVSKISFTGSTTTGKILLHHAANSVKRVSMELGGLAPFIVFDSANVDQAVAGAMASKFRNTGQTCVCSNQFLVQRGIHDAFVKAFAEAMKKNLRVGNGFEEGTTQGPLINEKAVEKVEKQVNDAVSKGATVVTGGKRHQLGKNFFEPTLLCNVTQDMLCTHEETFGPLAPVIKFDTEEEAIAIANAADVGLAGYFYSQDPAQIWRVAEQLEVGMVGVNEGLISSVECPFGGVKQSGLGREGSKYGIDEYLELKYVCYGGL
UniProt O95831, whole entry, looked up: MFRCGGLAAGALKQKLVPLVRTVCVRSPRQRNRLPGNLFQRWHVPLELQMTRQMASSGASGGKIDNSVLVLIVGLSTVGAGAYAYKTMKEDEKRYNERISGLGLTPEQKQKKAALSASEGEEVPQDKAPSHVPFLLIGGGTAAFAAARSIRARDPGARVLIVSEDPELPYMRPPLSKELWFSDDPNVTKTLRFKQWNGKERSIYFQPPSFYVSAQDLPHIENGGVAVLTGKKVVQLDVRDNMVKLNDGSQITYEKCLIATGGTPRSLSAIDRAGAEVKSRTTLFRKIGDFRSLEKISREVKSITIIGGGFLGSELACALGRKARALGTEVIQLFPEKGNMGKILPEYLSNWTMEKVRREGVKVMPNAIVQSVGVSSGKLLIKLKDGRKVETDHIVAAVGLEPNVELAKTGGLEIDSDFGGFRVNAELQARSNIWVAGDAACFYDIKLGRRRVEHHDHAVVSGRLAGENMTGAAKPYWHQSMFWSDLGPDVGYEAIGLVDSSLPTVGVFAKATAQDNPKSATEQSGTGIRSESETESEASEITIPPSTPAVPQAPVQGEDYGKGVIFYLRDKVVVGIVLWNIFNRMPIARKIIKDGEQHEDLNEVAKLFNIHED
UniProt Q02252: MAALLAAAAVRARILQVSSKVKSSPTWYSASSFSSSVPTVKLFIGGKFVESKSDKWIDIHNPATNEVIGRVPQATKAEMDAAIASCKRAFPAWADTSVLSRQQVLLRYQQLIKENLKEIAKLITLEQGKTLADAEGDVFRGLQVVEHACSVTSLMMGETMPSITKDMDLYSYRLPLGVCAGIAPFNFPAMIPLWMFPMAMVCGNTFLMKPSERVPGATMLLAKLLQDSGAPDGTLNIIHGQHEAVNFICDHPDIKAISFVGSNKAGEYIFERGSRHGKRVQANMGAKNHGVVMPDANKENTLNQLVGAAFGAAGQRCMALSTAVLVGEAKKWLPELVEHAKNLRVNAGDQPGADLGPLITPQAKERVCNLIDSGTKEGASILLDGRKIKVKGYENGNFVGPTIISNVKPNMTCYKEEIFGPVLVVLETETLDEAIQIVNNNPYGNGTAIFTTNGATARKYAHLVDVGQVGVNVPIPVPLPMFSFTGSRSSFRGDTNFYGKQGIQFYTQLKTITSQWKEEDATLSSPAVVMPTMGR
UniProt O00170: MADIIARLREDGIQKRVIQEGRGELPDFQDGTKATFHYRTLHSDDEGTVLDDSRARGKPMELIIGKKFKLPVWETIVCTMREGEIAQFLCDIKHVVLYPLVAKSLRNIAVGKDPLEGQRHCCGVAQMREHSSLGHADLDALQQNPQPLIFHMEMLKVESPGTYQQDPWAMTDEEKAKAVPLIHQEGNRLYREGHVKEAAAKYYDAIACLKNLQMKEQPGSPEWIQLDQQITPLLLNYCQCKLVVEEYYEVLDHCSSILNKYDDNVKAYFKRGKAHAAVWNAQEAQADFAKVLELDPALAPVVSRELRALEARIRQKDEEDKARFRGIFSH
UniProt Q9NX46: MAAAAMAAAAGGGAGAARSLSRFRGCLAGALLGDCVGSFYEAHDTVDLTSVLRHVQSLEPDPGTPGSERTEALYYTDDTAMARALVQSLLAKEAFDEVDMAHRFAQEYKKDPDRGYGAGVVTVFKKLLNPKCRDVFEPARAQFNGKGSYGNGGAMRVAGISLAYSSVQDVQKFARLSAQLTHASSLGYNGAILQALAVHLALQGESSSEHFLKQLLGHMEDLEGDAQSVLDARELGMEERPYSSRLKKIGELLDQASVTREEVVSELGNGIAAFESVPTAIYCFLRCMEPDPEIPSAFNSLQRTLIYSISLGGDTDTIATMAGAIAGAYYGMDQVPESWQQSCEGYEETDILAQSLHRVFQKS
UniProt Q9BV57: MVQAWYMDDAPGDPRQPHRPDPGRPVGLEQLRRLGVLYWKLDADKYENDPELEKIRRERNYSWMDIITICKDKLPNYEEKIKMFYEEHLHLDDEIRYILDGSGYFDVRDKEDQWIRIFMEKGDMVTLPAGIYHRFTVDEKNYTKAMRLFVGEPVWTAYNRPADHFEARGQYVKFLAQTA
UniProt Q9BRR6: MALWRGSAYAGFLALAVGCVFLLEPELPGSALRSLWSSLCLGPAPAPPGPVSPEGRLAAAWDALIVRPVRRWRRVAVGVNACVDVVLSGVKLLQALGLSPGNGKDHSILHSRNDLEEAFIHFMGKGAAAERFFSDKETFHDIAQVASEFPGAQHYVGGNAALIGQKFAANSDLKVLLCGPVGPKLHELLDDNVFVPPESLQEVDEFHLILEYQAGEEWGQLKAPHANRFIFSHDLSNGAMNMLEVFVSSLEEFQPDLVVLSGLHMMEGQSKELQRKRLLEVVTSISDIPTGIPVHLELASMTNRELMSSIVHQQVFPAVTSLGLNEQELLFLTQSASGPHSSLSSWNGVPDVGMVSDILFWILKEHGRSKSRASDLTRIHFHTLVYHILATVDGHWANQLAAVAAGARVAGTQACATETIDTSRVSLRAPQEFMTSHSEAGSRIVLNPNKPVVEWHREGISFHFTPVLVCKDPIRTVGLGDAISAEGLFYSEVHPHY
UniProt Q12904: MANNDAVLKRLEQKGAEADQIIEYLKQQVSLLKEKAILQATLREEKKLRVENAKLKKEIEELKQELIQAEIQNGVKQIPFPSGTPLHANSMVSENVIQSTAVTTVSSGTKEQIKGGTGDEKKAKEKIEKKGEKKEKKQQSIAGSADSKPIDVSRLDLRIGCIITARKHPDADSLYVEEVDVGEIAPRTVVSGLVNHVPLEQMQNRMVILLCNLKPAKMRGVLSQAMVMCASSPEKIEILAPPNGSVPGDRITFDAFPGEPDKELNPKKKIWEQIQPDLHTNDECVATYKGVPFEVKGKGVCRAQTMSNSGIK
UniProt O43488: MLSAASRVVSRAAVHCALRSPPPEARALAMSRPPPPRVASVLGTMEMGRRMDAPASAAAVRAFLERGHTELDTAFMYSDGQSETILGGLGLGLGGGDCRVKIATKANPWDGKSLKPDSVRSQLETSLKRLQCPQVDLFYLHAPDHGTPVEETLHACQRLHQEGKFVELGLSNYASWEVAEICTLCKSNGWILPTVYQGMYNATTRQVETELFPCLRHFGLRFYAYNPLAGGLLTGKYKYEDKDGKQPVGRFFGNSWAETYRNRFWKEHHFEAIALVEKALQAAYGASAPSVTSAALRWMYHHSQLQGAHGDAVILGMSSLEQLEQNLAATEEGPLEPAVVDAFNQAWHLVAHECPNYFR
UniProt P11766: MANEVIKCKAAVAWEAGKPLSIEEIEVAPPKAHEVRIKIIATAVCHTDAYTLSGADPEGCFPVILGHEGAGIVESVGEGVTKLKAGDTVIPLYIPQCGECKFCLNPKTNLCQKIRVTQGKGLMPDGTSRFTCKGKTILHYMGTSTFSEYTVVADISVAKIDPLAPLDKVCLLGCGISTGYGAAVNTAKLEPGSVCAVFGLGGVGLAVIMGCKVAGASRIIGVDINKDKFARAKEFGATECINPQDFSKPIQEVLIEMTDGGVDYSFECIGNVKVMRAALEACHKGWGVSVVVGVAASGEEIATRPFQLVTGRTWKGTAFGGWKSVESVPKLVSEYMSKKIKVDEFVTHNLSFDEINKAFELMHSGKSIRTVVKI
UniProt Q9UHX3: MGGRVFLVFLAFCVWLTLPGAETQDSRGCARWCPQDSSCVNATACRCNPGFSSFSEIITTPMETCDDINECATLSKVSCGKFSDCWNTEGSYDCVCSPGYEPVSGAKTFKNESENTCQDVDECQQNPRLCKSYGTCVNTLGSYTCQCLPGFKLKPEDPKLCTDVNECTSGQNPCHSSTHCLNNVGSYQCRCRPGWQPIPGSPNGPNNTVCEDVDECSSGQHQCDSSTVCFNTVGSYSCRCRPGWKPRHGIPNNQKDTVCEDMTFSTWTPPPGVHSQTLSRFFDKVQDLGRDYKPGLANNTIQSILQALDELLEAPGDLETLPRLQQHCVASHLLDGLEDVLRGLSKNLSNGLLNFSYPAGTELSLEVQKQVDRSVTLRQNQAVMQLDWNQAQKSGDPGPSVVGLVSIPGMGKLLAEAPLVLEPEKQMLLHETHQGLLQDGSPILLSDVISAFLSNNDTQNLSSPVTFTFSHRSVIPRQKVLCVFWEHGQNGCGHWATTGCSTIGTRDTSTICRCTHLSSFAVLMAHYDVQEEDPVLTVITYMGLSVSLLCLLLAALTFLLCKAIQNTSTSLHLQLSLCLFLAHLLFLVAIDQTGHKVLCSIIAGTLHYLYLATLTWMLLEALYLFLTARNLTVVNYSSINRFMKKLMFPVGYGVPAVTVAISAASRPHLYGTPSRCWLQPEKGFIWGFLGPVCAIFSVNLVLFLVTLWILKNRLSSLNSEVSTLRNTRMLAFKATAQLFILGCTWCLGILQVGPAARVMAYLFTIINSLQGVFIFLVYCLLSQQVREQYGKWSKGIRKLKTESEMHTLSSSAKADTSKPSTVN
UniProt O15120: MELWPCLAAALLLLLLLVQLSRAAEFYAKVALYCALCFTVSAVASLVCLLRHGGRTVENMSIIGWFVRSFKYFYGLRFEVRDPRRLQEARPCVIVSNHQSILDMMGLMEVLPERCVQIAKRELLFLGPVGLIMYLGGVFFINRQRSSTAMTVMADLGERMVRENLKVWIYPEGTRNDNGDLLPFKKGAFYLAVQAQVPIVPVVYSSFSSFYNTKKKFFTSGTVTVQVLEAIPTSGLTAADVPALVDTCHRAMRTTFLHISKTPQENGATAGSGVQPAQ

Experiments:
Experiment in all cases: log2 fold change, soluble protein after heating vs DMSO (PISA); higher = thermal stabilisation; K562 cells, 10 uM, 30 min; active = over 0.2 and 3.5 SD of the protein, either way, in both replicates (recomputed)
[1] = compound: CC1=C(C=C(C=C1)NC(=O)C2=CC(=CC=C2)C(C)(C)C#N)NC3=CC4=C(C=C3)N=CN(C4=O)C
Procedure, shortened: (§1)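 K562 cells at 2×10^6 cells/mL were treated with 10 μM compound for 30 min. Aliquots were heated for 3 min across 48°C-58°C, pooled, and extracted in PBS with 0.5% NP-40 at 4°C; soluble protein was the supernatant after 21,000xg for 90 min. Soluble protein was quantified by TMTpro 16plex LC-MS/MS with channel sums equalised, and reported as log2 fold change in thermal stability against DMSO controls, with values from duplicates.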

[2] = compound: CC1=C(C=C(C=C1)NC(=O)C2=CC(=CC=C2)N(C)C)NC(=O)C3=CC=C(C=C3)O
Procedure, shortened: as §1

[3] = compound: CC1=CC=C(C=C1)SC2=C3C=C(SC3=CN=C2)C(=O)N
Procedure, shortened: as §1

[4] = compound: CC1=NC(=CC=C1)C2=C(N=C(N2)C(C)(C)C)C3=CC4=NC=CN=C4C=C3
Procedure, shortened: as §1

Nexturastat A = compound: CCCCN(Cc1ccc(C(=O)NO)cc1)C(=O)Nc1ccccc1 [Nexturastat A]
Procedure, shortened: as §1

vemurafenib = compound: CCCS(=O)(=O)Nc1ccc(F)c(C(=O)c2c[nH]c3ncc(-c4ccc(Cl)cc4)cc23)c1F [vemurafenib]
Procedure, shortened: as §1

[5] = compound: CCCS(=O)(=O)Nc1ccc(F)c(C(=O)c2c[nH]c3ncc(Cl)cc23)c1F
Procedure, shortened: as §1

[6] = compound: CCCc1cc(C)[nH]c(=O)c1CNC(=O)c1cc(-c2ccnc(N3CCN(C)CC3)c2)cc2c1cnn2C(C)C
Procedure, shortened: as §1

givinostat = compound: CCN(CC)Cc1ccc2cc(COC(=O)Nc3ccc(C(=O)NO)cc3)ccc2c1 [givinostat]
Procedure, shortened: as §1

barasertib = compound: CCN(CCCOc1ccc2c(Nc3cc(CC(=O)Nc4cccc(F)c4)[nH]n3)ncnc2c1)CCOP(=O)(O)O [barasertib]
Procedure, shortened: as §1

[7] = compound: CC[C@@H]1C(=O)N(C)c2cnc(Nc3ccc(C(=O)NC4CCN(C)CC4)cc3OC)nc2N1C1CCCC1
Procedure, shortened: as §1

volasertib = compound: CC[C@@H]1C(=O)N(C)c2cnc(Nc3ccc(C(=O)N[C@H]4CC[C@H](N5CCN(CC6CC6)CC5)CC4)cc3OC)nc2N1C(C)C [volasertib]
Procedure, shortened: as §1

[8] = compound: CC[C@H](C)N1C=C(C2=C(C=C(C=C21)C3=CN=C(C=C3)N4CCNCC4)C(=O)NCC5=C(C=C(NC5=O)C)C)C
Procedure, shortened: as §1

epoxomicin = compound: CC[C@H](C)[C@@H](C(=O)N[C@@H]([C@@H](C)O)C(=O)N[C@@H](CC(C)C)C(=O)[C@]1(CO1)C)NC(=O)[C@H]([C@@H](C)CC)N(C)C(=O)C [epoxomicin]
Procedure, shortened: as §1

[9] = compound: CCn1c(C(=O)N(C2CC2)C2CC2)cc2c3c(ncn3C)c(Nc3cc(C)n(C)n3)nc21
Procedure, shortened: as §1

[10] = compound: CCn1cc(-c2ccnc3[nH]c(-c4cccc(CN(C)C)c4)cc23)c(-c2ccc(NC(=O)N(C)C)cc2)n1
Procedure, shortened: as §1

[11] = compound: CN(C)CC(=O)Nc1ccc2[nH]c(=O)c3ccccc3c2c1
Procedure, shortened: as §1

rosiglitazone = compound: CN(CCOC1=CC=C(C=C1)C[C@H]2C(=O)NC(=O)S2)C3=CC=CC=N3 (racemic) [rosiglitazone]
Procedure, shortened: as §1

[12] = compound: CN1C2=C(C3=C1C(=O)N(N=C3)CC4=CC(=CC=C4)N)SC(=C2)S(=O)C
Procedure, shortened: as §1

[13] = compound: CN1CCC(CNc2ccc3ncc(-c4cccc(OC(F)(F)F)c4)n3n2)CC1
Procedure, shortened: as §1

Measured: log2 fold change

AFTPH isoform 9 (UniProt Q6ULP2)
inactive: [1] -0.071 | [2] -0.009 | [3] 0.003 | [4] -0.035 | Nexturastat A -0.011 | vemurafenib 0.032 | [5] 0.009 | [6] 0.036 | givinostat 0.05 | barasertib 0.052 | [7] -0.008 | volasertib -0.15 | [8] 0.058 | epoxomicin 0.021 | [9] 0.003 | [10] 0.004 | [11] -0.007 | rosiglitazone 0.043 | [12] 0.036 | [13] -0.105

AGO4 (UniProt Q9HCK5)
inactive: [1] 0.023 | [2] 0.035 | [3] -0.072 | [4] 0.083 | Nexturastat A 0.175 | vemurafenib 0.018 | [5] -0.025 | [6] -0.098 | givinostat -0.004 | barasertib -0.13 | [7] 0.168 | volasertib 0.012 | [8] -0.02 | epoxomicin -0.147 | [9] -0.016 | [10] 0.014 | [11] -0.027 | rosiglitazone -0.018 | [12] 0.106 | [13] 0.003

ALDH5A1 isoform 2 (UniProt P51649)
inactive: [1] -0.026 | [2] 0.002 | [3] 0.025 | [4] 0.012 | Nexturastat A -0.043 | vemurafenib 0.008 | [5] 0.031 | [6] -0.032 | givinostat -0.032 | barasertib -0.006 | [7] 0.025 | volasertib 0.037 | [8] -0.011 | epoxomicin 0.028 | [9] 0.002 | [10] 0.013 | [11] 0 | rosiglitazone 0.014 | [12] -0.055 | [13] 0.046

AIFM1 (UniProt O95831)
inactive: [1] -0.013 | [2] -0.009 | [3] 0 | [4] 0.005 | Nexturastat A -0.056 | vemurafenib 0 | [5] -0.008 | [6] 0.02 | givinostat -0.022 | barasertib -0.008 | [7] 0.01 | volasertib 0.02 | [8] -0.018 | epoxomicin -0.011 | [9] 0.004 | [10] 0.012 | [11] 0.004 | rosiglitazone -0.001 | [12] -0.061 | [13] 0.072

ALDH6A1 (UniProt Q02252)
inactive: [1] -0.02 | [2] 0.032 | [3] -0.039 | [4] 0.044 | Nexturastat A -0.014 | vemurafenib 0.025 | [5] 0.011 | [6] 0.029 | givinostat -0.017 | barasertib -0.038 | [7] 0.06 | volasertib -0.011 | [8] -0.059 | epoxomicin 0 | [10] -0.06 | [11] -0.033 | [12] -0.068 | [13] -0.004

AIP (UniProt O00170)
inactive: [1] 0.014 | [2] -0.074 | [3] 0.032 | [4] 0.07 | Nexturastat A -0.07 | vemurafenib 0.071 | [5] 0.088 | [6] 0.065 | givinostat 0.043 | barasertib 0.031 | [7] -0.115 | [8] 0.054 | epoxomicin 0.172 | [10] -0.051 | [11] 0.057 | [12] -0.085 | [13] -0.047
active: volasertib -0.372

ADPRHL2 (UniProt Q9NX46)
inactive: [1] 0.022 | [2] -0.06 | [3] 0.007 | [4] 0.111 | Nexturastat A -0.077 | vemurafenib 0.126 | [5] 0.076 | [6] -0.003 | givinostat 0.004 | barasertib 0.043 | [7] -0.027 | volasertib 0.071 | [8] -0.028 | epoxomicin 0.145 | [10] -0.093 | [11] 0.116 | [12] -0.042 | [13] 0.133

ADI1 (UniProt Q9BV57)
inactive: [1] -0.031 | [2] -0.063 | [3] 0.003 | [4] -0.019 | Nexturastat A -0.04 | vemurafenib -0.025 | [5] 0 | [6] -0.341 | givinostat -0.172 | barasertib 0.042 | [7] 0.018 | volasertib -0.013 | [8] 0.079 | epoxomicin -0.006 | [9] -0.04 | [10] -0.01 | [11] 0.058 | rosiglitazone 0.069 | [12] 0.061 | [13] -0.06

Two successive records out of the list so far, quoted:
AFTPH isoform 9 (UniProt Q6ULP2)
inactive: [1] -0.071 | [2] -0.009 | [3] 0.003 | [4] -0.035 | Nexturastat A -0.011 | vemurafenib 0.032 | [5] 0.009 | [6] 0.036 | givinostat 0.05 | barasertib 0.052 | [7] -0.008 | volasertib -0.15 | [8] 0.058 | epoxomicin 0.021 | [9] 0.003 | [10] 0.004 | [11] -0.007 | rosiglitazone 0.043 | [12] 0.036 | [13] -0.105

AGO4 (UniProt Q9HCK5)
inactive: [1] 0.023 | [2] 0.035 | [3] -0.072 | [4] 0.083 | Nexturastat A 0.175 | vemurafenib 0.018 | [5] -0.025 | [6] -0.098 | givinostat -0.004 | barasertib -0.13 | [7] 0.168 | volasertib 0.012 | [8] -0.02 | epoxomicin -0.147 | [9] -0.016 | [10] 0.014 | [11] -0.027 | rosiglitazone -0.018 | [12] 0.106 | [13] 0.003

(further entries)

ADPGK (UniProt Q9BRR6)
inactive: [1] 0.017 | [2] 0.01 | [3] -0.009 | [4] 0.06 | Nexturastat A 0.048 | vemurafenib -0.014 | [5] -0.007 | [6] -0.036 | givinostat -0.034 | barasertib 0 | [7] 0.075 | volasertib -0.056 | [8] -0.028 | epoxomicin -0.103 | [9] 0.019 | [10] 0.019 | [11] -0.02 | rosiglitazone 0 | [12] -0.006 | [13] 0.045

AIMP1 isoform 2 (UniProt Q12904)
inactive: [1] 0.094 | [2] 0.032 | [3] 0 | [4] -0.082 | Nexturastat A 0.502 | vemurafenib -0.033 | [5] 0.032 | [6] 0.137 | givinostat 0.127 | barasertib -0.036 | [7] 0.151 | volasertib 0.02 | [8] 0.061 | epoxomicin -0.232 | [9] -0.04 | [10] 0.134 | [11] -0.031 | rosiglitazone -0.083 | [12] 0.353 | [13] 0.039

AMPD2 (UniProt Q01433)
inactive: [1] -0.011 | [2] -0.008 | [3] 0.01 | [4] 0.02 | Nexturastat A -0.044 | vemurafenib -0.026 | [5] -0.001 | [6] -0.021 | givinostat -0.006 | barasertib 0.004 | [7] 0.032 | volasertib -0.014 | [8] -0.022 | epoxomicin 0.001 | [9] -0.022 | [10] -0.042 | [11] 0.014 | rosiglitazone 0.006 | [12] -0.05 | [13] -0.067

AKR7A2 (UniProt O43488)
inactive: [1] 0.02 | [2] 0.015 | [3] 0.074 | [4] 0.027 | Nexturastat A -0.061 | vemurafenib 0.04 | [5] 0.136 | [6] 0.18 | givinostat -0.056 | barasertib 0.025 | [7] -0.03 | volasertib -0.009 | [8] 0.054 | epoxomicin 0.081 | [9] 0.015 | [10] 0.027 | [11] 0.032 | rosiglitazone 0.023 | [12] -0.036 | [13] -0.009

AKT1S1 isoform 3 (UniProt Q96B36)
inactive: [1] -0.029 | [2] 0.002 | [3] -0.037 | [4] -0.038 | Nexturastat A -0.016 | vemurafenib -0.075 | [5] -0.04 | [6] -0.049 | givinostat 0 | barasertib 0.043 | [7] 0.025 | volasertib 0.139 | [8] 0.028 | epoxomicin 0.015 | [9] -0.016 | [10] 0.006 | [11] -0.025 | rosiglitazone -0.014 | [12] -0.062 | [13] 0.03

ADH5 (UniProt P11766)
inactive: [1] 0.004 | [2] 0.008 | [3] 0.043 | [4] 0.009 | Nexturastat A -0.103 | vemurafenib -0.007 | [5] 0.008 | [6] -0.046 | givinostat -0.01 | barasertib -0.023 | [7] 0.01 | volasertib 0.02 | [8] -0.024 | epoxomicin -0.016 | [10] -0.001 | [11] -0.01 | [12] -0.052 | [13] -0.02

AGO3 (UniProt Q9H9G7)
inactive: [1] 0.011 | [2] 0.01 | [3] -0.014 | [4] -0.008 | Nexturastat A 0.124 | vemurafenib -0.061 | [5] 0.017 | [6] 0.226 | givinostat -0.068 | barasertib -0.033 | [7] 0.223 | volasertib 0.11 | [8] 0.051 | epoxomicin -0.046 | [9] 0.109 | [10] 0.147 | [11] -0.096 | rosiglitazone -0.073 | [12] 0.023 | [13] -0.085

ADGRE2 (UniProt Q9UHX3)
inactive: [1] -0.024 | [2] -0.049 | [3] -0.036 | [4] -0.011 | Nexturastat A 0.016 | vemurafenib 0 | [5] 0.046 | [6] -0.16 | givinostat 0.064 | barasertib 0.003 | [7] 0.112 | volasertib -0.035 | [8] -0.073 | epoxomicin -0.012 | [9] -0.036 | [10] -0.049 | [11] -0.06 | rosiglitazone 0.009 | [13] 0.058

AGPAT2 (UniProt O15120)
inactive: [1] 0.029 | [2] -0.022 | [3] -0.068 | [4] -0.091 | Nexturastat A -0.103 | vemurafenib 0.066 | [5] 0.001 | [6] -0.057 | givinostat -0.074 | barasertib -0.076 | [7] 0.041 | volasertib 0.029 | [8] 0.002 | epoxomicin -0.006 | [9] 0.034 | [10] -0.071 | [11] -0.026 | rosiglitazone -0.089 | [12] 0.022 | [13] 0.286
